From patent EP1987837A1 (Technische Universität Dresden Medizinische Fakultät Carl …, dated 2008) come the findings set out here.

These are yes or no findings as the source states them, for the method shown. For some of these results: Binding seen in cells or lysates may run through a third protein. For some of these results: A result given as binding can be weak or reduced; the word gives no strength. For some of these results: Sequences can lack the tags named with a protein.

For assay [1], the target named is ICA512-TMF (rat) (UniProt Q63259). Put plainly: co-immunoprecipitation (title of the figure legend).
The target is the same in assay [2]. Put plainly: co-immunoprecipitation with rabbit anti-ICA512ecto from INS-1E cell extracts, anti-GFP blot.
Assay [3] has as its target GST-ICA512extracellular (Homo sapiens (Human)). Put plainly: GST pull-down, SDS-PAGE and autoradiography.

B1: ICA512-CCF-GFP (protein, not shown: large carriers; small tags and cut ends)
chain: SQFSDAAQASPSSHSSTPSWCEEPAQANMDISTGHMILAYMEDHLRNRDRLAKEWQALCAYQAEPNTCATAQGEGNIKKNRHPDFLPYDHARIKLKVESSPSRSDYINASPIIEHDPRMPAYIATQGPLSHTIADFWQMVWESGCTVIVMLTPLVEDGVKQCDRYWPDEGASLYHVYEVNLVSEHIWCEDFLVRSFYLKNVQTQETRTLTQFHFLSWPAEGTPASTRPLLDFRRKVNKCYRGRSCPIIVHCSDGAGRTGTYILIDMVLNRMAKGVKEIDIAATLEHVRDQRPGLVRSKDQFEFALTAVAEEVNAILKALPQ
modifications: C-terminal GFP fusion not carried in the letters
As to B1, the binding entry with ICA512-TMF (rat) [1] and in the assay with ICA512-TMF (rat) [2] was “binds” throughout.

B2: 35S-ICA512601-979 (protein)
chain: RQHARQQDKERLAALGPEGAHGDTTFEYQDLCRQHMATKSLFNRAEGPPEPSRVSSVSSQFSDAAQASPSSHSSTPSWCEEPAQANMDISTGHMILAYMEDHLRNRDRLAKEWQALCAYQAEPNTCATAQGEGNIKKNRHPDFLPYDHARIKLKVESSPSRSDYINASPIIEHDPRMPAYIATQGPLSHTIADFWQMVWESGCTVIVMLTPLVEDGVKQCDRYWPDEGASLYHVYEVNLVSEHIWCEDFLVRSFYLKNVQTQETRTLTQFHFLSWPAEGTPASTRPLLDFRRKVNKCYRGRSCPIIVHCSDGAGRTGTYILIDMVLNRMAKGVKEIDIAATLEHVRDQRPGLVRSKDQFEFALTAVAEEVNAILKALPQ
modifications: 35S-methionine labelled
As for B2, the binding result in assay [3] is given as “no binding”.

B3: 35S-ICA512700-979 (protein)
chain: EDHLRNRDRLAKEWQALCAYQAEPNTCATAQGEGNIKKNRHPDFLPYDHARIKLKVESSPSRSDYINASPIIEHDPRMPAYIATQGPLSHTIADFWQMVWESGCTVIVMLTPLVEDGVKQCDRYWPDEGASLYHVYEVNLVSEHIWCEDFLVRSFYLKNVQTQETRTLTQFHFLSWPAEGTPASTRPLLDFRRKVNKCYRGRSCPIIVHCSDGAGRTGTYILIDMVLNRMAKGVKEIDIAATLEHVRDQRPGLVRSKDQFEFALTAVAEEVNAILKALPQ
modifications: 35S-methionine labelled
For B3, the binding result in assay [3] was “no binding”.
